Reference: PMC4005652
These are yes or no findings as the source states them, for the method shown. In cells and extracts the contact can be indirect. Binding calls can cover weak binding; strength is not graded here.

Target: Zm-mTERF4 (maize (endogenous in maize chloroplast stroma))
Experiment: co-IP; maize chloroplast stromal extract immunoprecipitated with Zm-mTERF4 antibody; pellets and supernatants probed on immunoblots; immunoprecipitation with OE16 antibody as negative control

B1: CAF2 (protein, UniProt Q84N48 59-611)
chain: QEEPTDSGPTRTVTTNPAFRAAHLRTAYRKPVPPAAAAGEGEALLAADPTDAASGRAVVVGPSGLSFRLPGAPFDFQFSYSEAPRAPPLAIREPAFLPFAPPTMPRPWTGKAPLLTKEEKARRRGVRLHTPLGQETPQTVSAHGIMMEVRERRKMDLARVSPGDGRSREEVLGEPLTPSEVRALVKPHISHNRQLNIGRDGLTHNMLEMIHCHWRRQEICKVRCRGVPTVDMKNLCYHLEEKSGGKVIHRVGGVVFLYRGRHYDPKTRPRYPLMLWKPATPVYPKLIKEAPDGFTKEEADEMRRKGRDLLPICKLAKNGIYITLVKDVRDAFEGSDLVKIDCEGLNPSDYKKIGAKLRDLVPCVLLSFDDEQILMHRGKEWKSRYSKPLTLIPKVPKNNLAMTSVMNSSDEVSDANTQVAIREVLRPKMFKLWKSAVDSSLALLLDDAEANNLTPDSLLTLVEEFSVTSQAVEHSFPALLVTNGDASTDSLSAEYMNDEPETSVAGNEEGQLEQSPDLRDDEHFDVDMFERLESSVPLGSLPIDSMIERLNSE
**Q.** How did the binding turn out when B1 was run?
**A.** The binding was “binds”.

B2: CFM3 (protein, UniProt A7XN92 83-842)
chain: ILSRLRRAGYSGEDPRAAAPPHPPRGSVEDVFRADDGVLPNARGGFDADDEERALGDARFPWERPMPPPEAAPRSARSPTWMAELTLPAAELRRLRHAAIRIKSRTKVGGAGVTREIVEKIKEKWKTEEVVRVKVSGTPALNMRLFHEILERKTGGLVIWRSGTSVSLYRGVDYDEPEPTKKSKKNSQSLAMDFPIKGSSNPSLLPTETANSVRDSNVALVSNAAKEELVVQAPEIKYEDEIDKLLDELGPRYTDWPGSDPLPVDADLLPANMPGYKPPFRVLPYGVRPSLSRRDTTNLRRLARGLPPHFALGRSRQLQGLANAMVKLWEKSSIAKIALKRGVQLTTSERMAEDIKKLTGGVMLSRNNEFIVFYRGKDFLSSELAEVLLERERLAKSLQDEEEARRKAASYFSSAETYAQPTVAGTLGETLEANSKYGTKHDENHADKMARTIEAARHADLVRKLEWKLSLAQKKMEKAERVLGKVETALRPTEDSRPPETITDEERFMFRKLGLRMKAFLLLGRRGVFDGTIENMHLHWKYRELVKILVKAKSFADVKRIALSLEAESGGILVSVDKVSKGYAIVVFRGKNYRRPSSLRPRNLLSKRKALARSIELQRHQALSRHFAKLNRKVERLKAELVQMEDVKEQGDEELYAKLDAAYSSDDEDMEDEDDEAYLKRFDNEVAGATADDDGSDDYTSAADEADYPDSDDEAGDCSEDEGEDDEDEAAAGVSDAGFHGEVVGFSSDTDRRNHDVNEY
**Q.** With B2 as the binder, how does the binding read?
**A.** Its binding is “binds”.

B3: CRS1 (protein, UniProt Q9FYT6 41-715)
chain: AEATPSKFRIDSPKPAPARKNTKTAAKPLTAGVPGGRTHRAVLGIIRRVRSLELSDAPSPNSVHTSNSGAAAAAFHLTIELSPPREPGQYVVEKEKSRAVPWAAARDEGLKVALRREKKPREPTRAETELETHELRRLRRLARGIGRWARAKKAGVTDEVVKEVRREWASGEELAAVRIVEPLRRSMDRAREILEIKTGGLVVWTKGDMHFVYRGSKYQQNAKHSHTFLTNVHKDDAFQENDQSICGQKDEEPVKGTLYEREVNRLLDTLGPRFVDWWWDTPLPVDADLLPEFVPGSKTPYRLCPPGVRPTLADEELTYLRKLARLLPTHFALGRNTRLQGLAAAILKLWEKSLIAKIAVKIGIQNTNNEQMAWNLKHLTGGTVILRNKDFIILYRGKDFLPGGVAQTVIQREAQVHDEQVKEEEARLKAVDSLQMVGELSEESSLGTFREYQGFHAKFVHENTENSNTMIELEAEKYRLEKELKDHEWKLSVLNKKIERSNQALAKLHSSWSPSEQSADREHLTEEEKIMFRRIGRKMDGLVLLGRRGIFDGVIEEIHQHWKHKEVVKVITKQNQTRQIMYAASLLEVETGGILIAVEKLTTSHAIILYRGKNYRRPAKSSFSNLLTKREALRRSIEVQRRGSMKYFVRERQKSILELKRKLRYVTRQIRYRTP
**Q.** How did the binding turn out when B3 was run?
**A.** The binding was “binds”.

B4: RNC1 (protein, UniProt A6YSL1 29-525)
chain: VLAVAADQTPPPAPPSEPANSPSRLLRELAQRKKAVSPKKKHPPRRFILKPPLDDERLTRRFLSSPQLSLKALPLLSSCLPSAPLSTADRTWMDEYLLEAKQALGYPLAPSETLGEGDDCPARHFDVLFYLAFQHLDPSSERTRMRHVRNGHSRLWFLGQYVLELAFCEFFLQRYPRESPGPMRERVFALIGKKVLPRWLKAASLHNLVFPYDDLDKMIRKDREPPSKAVFWAIFGAIYLCFGMPEVYRVLFEAFGMDPDDESCQPKLRRQLEDVDYVSVEFEKRQLTWQDVAAYRPPPDALFAHPRLFRACVPPGMHRFRGNIWDFDSRPKVMTTLGYPLPMNDRIPEITEARNIELGLGLQLCFLHPSKHKFEHPRFCYERLEYVGQKIQDLVMAERLLMKHLDAPGRWLAEKHRRTLMNKYCGRYLRDKHLQHYIIYGETVQDRFEHNRRLRNPSTTSVQQALHGLAYCVYGKPDVRRLMFEVFDFEQVQPKAV
**Q.** Which binding does the source give for B4 here?
**A.** The binding was “binds”.

B5: WTF1 (protein, UniProt B6TTV8 51-498)
chain: AQAAVKRRKEAPFDTVIQRDKKLKLVLKLRNILVAQPDRVMSLRELGRFRRDLGLTRKRRLIALLRRFPGVFDVVEEGVYSLRFRLTPAAERLYLDELRLRNESEGLAVAKLRKLLMMSQEKRILIEKVAHLKHDLGLPPEFRDTVCLRYPQYFRVVRMDRGPALELTHWDPELAVSAAELAEEESRAREAEERNLIIDRPLKFNRVRLPKGLKLTRGEARRIARFKEMPYISPYADFSHLRSGSDEKEKHACGVVHEILSLTVEKRTLVDHLTHFREEFRFSQSLRGMIIRHPDMFYVSFKGDRDSVFLREAYKDSQLVEKNQLVLLKEKMRALVAVPRFPRRAAVGTGEEAEGMNGSLQSRDQVSDEEYDDEDEGLSDMEDLISELSGGKSDADYEWGDGWFGENDDSPPDFGDDEVKVAMKIADGSANGSAPVPVFPDGRPRERW
**Q.** B5 was tested. Which binding did it give?
**A.** Its binding is “binds”.

B6: PPR10 (protein, UniProt B8Y6I0 96-786)
chain: ASRRDELLRADITSLLKALELSGHWEWALALLRWAGKEGAADASALEMVVRALGREGQHDAVCALLDETPLPPGSRLDVRAYTTVLHALSRAGRYERALELFAELRRQGVAPTLVTYNVVLDVYGRMGRSWPRIVALLDEMRAAGVEPDGFTASTVIAACCRDGLVDEAVAFFEDLKARGHAPCVVTYNALLQVFGKAGNYTEALRVLGEMEQNGCQPDAVTYNELAGTYARAGFFEEAARCLDTMASKGLLPNAFTYNTVMTAYGNVGKVDEALALFDQMKKTGFVPNVNTYNLVLGMLGKKSRFTVMLEMLGEMSRSGCTPNRVTWNTMLAVCGKRGMEDYVTRVLEGMRSCGVELSRDTYNTLIAAYGRCGSRTNAFKMYNEMTSAGFTPCITTYNALLNVLSRQGDWSTAQSIVSKMRTKGFKPNEQSYSLLLQCYAKGGNVAGIAAIENEVYGSGAVFPSWVILRTLVIANFKCRRLDGMETAFQEVKARGYNPDLVIFNSMLSIYAKNGMYSKATEVFDSIKRSGLSPDLITYNSLMDMYAKCSESWEAEKILNQLKCSQTMKPDVVSYNTVINGFCKQGLVKEAQRVLSEMVADGMAPCAVTYHTLVGGYSSLEMFSEAREVIGYMVQHGLKPMELTYRRVVESYCRAKRFEEARGFLSEVSETDLDFDKKALEAYIEDAQFGR
**Q.** With B6 as the binder, how does the binding read?
**A.** Its binding is “no binding”.
